The values below come from doi:10.1101/2023.07.25.550368.

The chains behind the UniProt entries cited, without tags or fusion partners.
UniProt Q96KQ7: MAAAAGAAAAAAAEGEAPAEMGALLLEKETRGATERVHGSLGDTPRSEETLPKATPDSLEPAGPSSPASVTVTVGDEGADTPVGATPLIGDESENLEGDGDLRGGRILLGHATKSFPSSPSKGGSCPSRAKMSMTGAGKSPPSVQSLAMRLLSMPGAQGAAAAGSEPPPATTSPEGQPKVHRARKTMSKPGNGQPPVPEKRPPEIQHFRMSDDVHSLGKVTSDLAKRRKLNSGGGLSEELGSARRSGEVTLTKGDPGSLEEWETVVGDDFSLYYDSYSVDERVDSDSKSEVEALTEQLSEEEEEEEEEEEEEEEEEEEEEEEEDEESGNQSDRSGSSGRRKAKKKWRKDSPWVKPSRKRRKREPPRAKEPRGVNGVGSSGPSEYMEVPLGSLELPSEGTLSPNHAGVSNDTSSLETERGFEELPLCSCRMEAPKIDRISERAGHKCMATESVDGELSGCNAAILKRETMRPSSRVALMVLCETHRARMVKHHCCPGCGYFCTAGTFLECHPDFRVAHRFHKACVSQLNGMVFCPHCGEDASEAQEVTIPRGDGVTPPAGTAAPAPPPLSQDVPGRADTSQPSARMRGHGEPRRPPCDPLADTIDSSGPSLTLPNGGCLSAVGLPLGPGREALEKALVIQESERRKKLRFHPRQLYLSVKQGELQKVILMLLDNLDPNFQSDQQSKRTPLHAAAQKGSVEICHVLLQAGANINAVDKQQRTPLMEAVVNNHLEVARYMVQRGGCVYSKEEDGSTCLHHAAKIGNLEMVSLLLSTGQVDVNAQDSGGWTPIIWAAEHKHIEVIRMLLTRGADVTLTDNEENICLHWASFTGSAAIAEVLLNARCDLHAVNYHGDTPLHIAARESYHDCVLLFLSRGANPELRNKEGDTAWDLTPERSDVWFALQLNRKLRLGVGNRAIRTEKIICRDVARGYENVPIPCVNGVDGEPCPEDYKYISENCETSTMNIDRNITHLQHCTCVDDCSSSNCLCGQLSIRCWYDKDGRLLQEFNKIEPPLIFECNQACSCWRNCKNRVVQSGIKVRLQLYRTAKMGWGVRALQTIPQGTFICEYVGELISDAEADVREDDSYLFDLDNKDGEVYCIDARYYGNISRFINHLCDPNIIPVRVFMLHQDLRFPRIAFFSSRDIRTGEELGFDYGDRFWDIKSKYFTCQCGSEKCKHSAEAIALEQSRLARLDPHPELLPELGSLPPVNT
UniProt P03372: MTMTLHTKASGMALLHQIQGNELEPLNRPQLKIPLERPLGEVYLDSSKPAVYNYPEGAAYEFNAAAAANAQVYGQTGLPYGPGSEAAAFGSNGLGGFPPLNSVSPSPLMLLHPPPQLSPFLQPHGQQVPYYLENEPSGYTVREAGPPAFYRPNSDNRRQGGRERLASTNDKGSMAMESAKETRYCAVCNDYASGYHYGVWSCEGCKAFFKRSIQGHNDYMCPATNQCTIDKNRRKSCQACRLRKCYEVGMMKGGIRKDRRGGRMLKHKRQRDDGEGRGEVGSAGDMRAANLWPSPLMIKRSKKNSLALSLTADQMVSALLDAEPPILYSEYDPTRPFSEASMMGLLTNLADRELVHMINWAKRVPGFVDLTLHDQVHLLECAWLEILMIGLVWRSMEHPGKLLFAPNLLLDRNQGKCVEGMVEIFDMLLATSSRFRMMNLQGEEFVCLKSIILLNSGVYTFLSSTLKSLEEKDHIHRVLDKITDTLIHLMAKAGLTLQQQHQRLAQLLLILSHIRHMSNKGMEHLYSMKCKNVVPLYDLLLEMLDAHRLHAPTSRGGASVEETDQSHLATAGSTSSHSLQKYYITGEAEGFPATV

The assay has as its target lysine methyl-transferase EHMT2 (also known as G9a or KMT1C) (human (endogenous in Ishikawa)) (UniProt Q96KQ7). Kind of assay: co-IP.

Results are given in words; binding and its absence hold for the method and conditions named. Binding seen in cells or lysates may run through a third protein. Some results given as binding are weak or reduced against the parent protein; the word gives no strength.

As for “Estrogen Receptor alpha (ERα) (from UniProt P03372 1-595)”, the binding result was “binds”.
